Some of these results come from one statement about several compounds together. Some ranges recur; such a range may be that of the whole group of compounds.
Tested on: SKBR3 cells
Assay: Internalization rate with anti-HER2 antibody combination
Assay type: cell-based
Conditions: with Trastuzumab and Pertuzumab
Procedure: For the assay, 40,000 SKBR3 cells were plated in DMEM media containing 10% FBS, in each well of three 96 well plates (black colored plates with clear bottomed wells) and allowed to attach overnight at 37° in 5% CO2. The next day the cells were treated with antibodies as follows. […] The unbound antibody was removed by washing the cells two times with ice cold media. For detection, 5 μg/ml of an Alexa 647 labelled anti-human IgG Fab fragment was added to each well in ice cold media and incubated on ice for 1 hr. The unbound secondary antibody was removed by washing each well 2 times with ice cold media. […] Each treatment was carried out in triplicate. One set of wells were treated with the Alexa 647 labelled anti-human IgG monovalent Fab fragment alone, and the fluorescence measured in these wells was used to subtract background fluorescence.
One plate was left on ice to determine the time 0 values for each treatment, and the other plates were incubated at 37° C. After 1.5 hours, one plate from 37° C., and the time 0 plate, were washed 2 times with ice cold PBS and scanned using the 680 nm channel of a Licor Odyssey scanner. The fluorescence measured in each well is used as the total fluorescence for each treatment. The cells were then acid washed 2 times with 100 mM glycine, 50 mM KCl, and 20 mM […], pH2.2, then washed two times with ice cold PBS to remove the surface bound antibodies. The plates were scanned again to determine the amount of internalized fluorescence in each well. The 24 hour plates were analyzed the same way the next day.

| Substance | Percent internalized |
| --- | --- |
| XMT 1518: affinity matured fully human anti-HER2 IgG1 antibody, heavy chain SEQ ID NO: 3, light chain SEQ ID NO: 4 | 80-90% |
| XMT 1519: fully human anti-HER2 IgG1 monoclonal antibody, heavy chain SEQ ID NO: 5, light chain SEQ ID NO: 6 | 80-90% |
| XMT 1520: affinity matured fully human anti-HER2 IgG1 antibody, heavy chain SEQ ID NO: 7, light chain SEQ ID NO: 8 | 80-90% |

Reference: patent publication US9738720B2, “Monoclonal antibodies against HER2 epitope and methods of use thereof” (Mersana Therapeutics, Inc., priority 2014, dated 2017)
